This data set is described as follows: general procedure: solution-phase peptide synthesis; HATU/DIEA. As to conditions: late stage modification step.

Substance “(S)-11-benzyl-1-(9H-fluoren-9-yl)-20,20-dimethyl-3,6,9,12,15-pentaoxo-2,18-dioxa-4,7,10,13,16-pentaazahenicosan-21-oic acid” yielded a step yield of 84.8%.
For “Benzyl (S)-11-benzyl-1-(9H-fluoren-9-yl)-20,20-dimethyl-3 9,12,15-pentaoxo-2,18-dioxa-4,7,10,13,10-pentaazahenicosan-2l -oate” the value was 29.2%.

Values taken from US20250115677A1 (BeiGene Switzerland GmbH, priority 2022, published 2025).
